PubChem BioAssay AID1259308 – NCATS | 2017

Test: 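Knock-downs that increase output of a recombinant reporter protein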 (primary screen)
System: human HEK293 embryonic kidney cells stably expressing firefly luciferase (HEK-CMV-Luc2-Hygro)
Reagent: single siRNA against human genes, 0.8 pmol siRNA per well
Time to read-out: 72 h
Measured: 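Reporter luminescence and viable-cell signal on separate replicate plates, given as percent of non-targeting control and median/MAD z-scores, plus per-cell luciferase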
Reading the numbers: total luciferase, z-score and total luciferase, % of control: higher = more reporter protein produced
Hit rule: 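An siRNA counts as active if its total luciferase robust z-score exceeds 3; genes with two or more such siRNAs out of three were retested with fresh siRNAs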
Calls: active = raised luciferase; inactive = no rise
In all, the deposit lists about 59,000 reagents; this is an unselected part. About 1,510 of all reagents (2.6%) count as active. 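Calls use total luciferase alone and ignore viability, so some active siRNAs may act by altering cell number.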 Unmarked entries are inactive. Reagents against one gene are numbered here. Not all columns of the deposit are shown.

What did the screen give for KCNMB2 #1?
total luciferase, z-score: -1; total luciferase, % of control: 61.9

For KCNMB2 #2, what was measured?
total luciferase, z-score: -0.793; total luciferase, % of control: 66.1

With KCNMB2 #3, how do the results read?
total luciferase, z-score: -1.15; total luciferase, % of control: 59.1

What is on record for FYN #1?
total luciferase, z-score: -0.187; total luciferase, % of control: 78.2

What did the screen give for FYN #2?
total luciferase, z-score: 0.0485; total luciferase, % of control: 82.9

For FYN #3, how do the results read?
total luciferase, z-score: -0.7; total luciferase, % of control: 68

With EEF1A1P47 #1, what was measured?
total luciferase, z-score: -0.449; total luciferase, % of control: 73

Which result is listed for EEF1A1P47 #2?
total luciferase, z-score: 0.107; total luciferase, % of control: 84

Which result is listed for EEF1A1P47 #3?
total luciferase, z-score: 0.12; total luciferase, % of control: 84.3

For PHF1 #1, how do the results read?
total luciferase, z-score: -0.12; total luciferase, % of control: 79.5

What did the screen give for PHF1 #2?
total luciferase, z-score: -1.37; total luciferase, % of control: 54.7

For PHF1 #3, how do the results read?
total luciferase, z-score: -1.33; total luciferase, % of control: 55.4

2 entries from above, reformatted.
{"gene":"KCNMB2","reagent":2,"total luciferase, z-score":-0.793,"total luciferase, % of control":66.1}
{"gene":"KCNMB2","reagent":3,"total luciferase, z-score":-1.15,"total luciferase, % of control":59.1}
